No constants are given. Whether binding was seen depends on the method and setting. In cells and extracts the contact can be indirect. A result given as binding can be weak or reduced; the word gives no strength. One block for each binder: values may come before it.
Tests used:
Flag-Cep152 = test: co-IP; Flag IP: cell lysate with Flag M2 resin in lysis buffer (50 mM Tris HCl pH 7.4, 150 mM NaCl, 1 mM EDTA, 1% Triton X100) for 2 hours at 4°C; washed with PBS; Western blot
[1] = biological target: MBP-XCep152 (Xenopus laevis); test: pull-down; amylose resin bound to MBP-XCep152, incubated with in vitro translated 35S-labelled XCep63 without egg extract, in EB buffer (50 mM HEPES pH 7.5, 100 mM KCl, 2.5 mM MgCl2); autoradiography; only the target purified
[2] = biological target: MBP-XCep152 (Xenopus laevis); test: pull-down; amylose resin bound to MBP-XCep152, incubated with Xenopus laevis cytostatic factor arrested egg extract (no centrosomes) containing in vitro translated 35S-labelled XCep63; autoradiography; only the target purified

- binding (Flag-Cep152): binds
B1: endogenous Cep63 (protein, UniProt Q96MT8 1-703)
chain: MEALLEGIQNRGHGGGFLTSCEAELQELMKQIDIMVAHKKSEWEGRTHALETCLKIREQELKSLRSQLDVTHKEVGMLHQQVEEHEKIKQEMTMEYKQELKKLHEELCILKRSYEKLQKKQMREFRGNTKNHREDRSEIERLTAKIEEFRQKSLDWEKQRLIYQQQVSSLEAQRKALAEQSEIIQAQLVNRKQKLESVELSSQSEIQHLSSKLERANDTICANELEIERLTMRVNDLVGTSMTVLQEQQQKEEKLRESEKLLEALQEEKRELKAALQSQENLIHEARIQKEKLQEKVKATNTQHAVEAIRPREESLAEKKYTSQGQGDLDSVLSQLNFTHTSEDLLQAEVTCLEGSLESVSATCKQLSQELMEKYEELKRMEAHNNEYKAEIKKLKEQILQGEQSYSSALEGMKMEISHLTQELHQRDITIASTKGSSSDMEKRLRAEMQKAEDKAVEHKEILDQLESLKLENRHLSEMVMKLELGLHEAKEISLADLQENYIEALNKLVSENQQLQKDLMNTKSQLEISTQMCKKQNDRIFKPTHSRTTEFKNTEFKPTHGQHRHDGIKTEHYKTDLHSPRGQASDSINPMSRVLSPLSPQISPCSSTRSLTSYSLCKTHSLPSALDTNEANFSDTMSESMNDQEEFISSCSLPVSPLGSIATRFLEEEELRSHHILERLDAHIEELKRESEKTVRQFTALK

- binding [1]: binds
- binding [2]: binds
B2: 35S-XCep63 (protein, UniProt B9V5F5 1-649)
chain: MEALLQGLQRQDRMGALQDSCEAELQELMKQIDIMLDHKRSQWEAETETMKTRLELKEQELNCALDREERLNQEVRRLRQQLIQQEEETQNKTTQYEAQLSGFKEELNRLKKSYEKVQKKHLRSEMKAKAEEERSEVSRLTRRLEEFRQRSLDWEKQRLLYQQQLAGLEAQRKTLIEQTEMYQHQSHNRKQMLEQTSLVGRSELQNLSGQLHRANDSLCAKEEELETLKIQLRCAVEGQKRAEHETELSKQAVQALKEEKAELRATLQAHTEFLQGSRVQKHELLPEGYRGSEVLRENNSIRSVEERLQEMGQVGGETEVEAIRSKLSVSRMNEHRLQAEVTCLEDSVESVTSQCQLLAKELKGKEEYFHGVKEDHQKCLSENKKLKGQLSQAELTHKSVLDGMRKEISQLTQELHQRDIRMASSAGIDWERKIKAERQRAEREAAEHRMSLNALENLRQENCRLSELLQTQEPDVAQALVNLEQANQRLQRELLQTQEKLELIAQRRESEIQNAVDSISQELLNKQEQELRIMQERLKVYEQEMQTFRSQQDAASSGSSLESIFSEVWKEQATGSPISAASVDSAIEPVEDLASSLPVPPTSPANAVASRFLQEEEQRSHELLQRLNAHIEELKQESQRTVEHFTQAR
modifications: labelled with 35S methionine

From article PMC3728344
